# Assay results as given in the supplement of paper PMC11438910.
# The other results are listed elsewhere or left out. Most of these values are background signal.
# B1: 3S41.4 (protein)
# chain 1: EVQLVESGGGLVQPGGSLRLSCATSGFTFSNYWMYWFRQAPGKGLEWVSTISGSSTNTYYSGSVKGRFTISRDNAKNTLYLQMNSLRAEDTAVYYCARRGTDSSHWYFDLWGPGTPITVSS
# chain 2: EIVMTQSPATLSLSPGERATLSCRASQSVSSNLAWYQQKPGQGPRLLIYDASNRATGIPDRFGGSGSGTDFTLTISSLEPEDVGVYYCQQESNWPLTFGGGTKVEIK
# Legend:
# Experiment in all cases: fluorescence intensity of antibody binding to polysaccharide-coupled beads; higher = stronger binding
# [1] = biological target: pneumococcal polysaccharide Pn35C
# [2] = biological target: pneumococcal polysaccharide Pn35F
# [3] = biological target: pneumococcal polysaccharide Pn36
# [4] = biological target: pneumococcal polysaccharide Pn37
# [5] = biological target: pneumococcal polysaccharide Pn38
# [6] = biological target: pneumococcal polysaccharide Pn39
# [7] = biological target: pneumococcal polysaccharide Pn4
# [8] = biological target: pneumococcal polysaccharide Pn40
# [9] = biological target: pneumococcal polysaccharide Pn41A
# [10] = biological target: pneumococcal polysaccharide Pn41F
# [11] = biological target: pneumococcal polysaccharide Pn42
# [12] = biological target: pneumococcal polysaccharide Pn43
# [13] = biological target: pneumococcal polysaccharide Pn44
# [14] = biological target: pneumococcal polysaccharide Pn45
# [15] = biological target: pneumococcal polysaccharide Pn46
# [16] = biological target: pneumococcal polysaccharide Pn47A
# [17] = biological target: pneumococcal polysaccharide Pn47F
# [18] = biological target: pneumococcal polysaccharide Pn48
# [19] = biological target: pneumococcal polysaccharide Pn5
# [20] = biological target: pneumococcal polysaccharide Pn6A
# [21] = biological target: pneumococcal polysaccharide Pn6B
# [22] = biological target: pneumococcal polysaccharide Pn6C
# [23] = biological target: pneumococcal polysaccharide Pn6D
# [24] = biological target: pneumococcal polysaccharide Pn7A
# [25] = antibody concentration 2337.65 ng/mL
# [26] = antibody concentration 12500 ng/mL
# [27] = antibody concentration 0.1 ng/mL
# [28] = antibody concentration 0.534724 ng/mL
# [29] = antibody concentration 2.8593 ng/mL
# [30] = antibody concentration 15.2894 ng/mL
# [31] = antibody concentration 81.7561 ng/mL
# [32] = antibody concentration 437.17 ng/mL
binder,measurement,setting,value
B1,fluorescence intensity,[1]; [25],22 MFI
same,fluorescence intensity,[1]; [26],31.5 MFI
same,fluorescence intensity,[2]; [27],20 MFI
same,fluorescence intensity,[2]; [28],19 MFI
same,fluorescence intensity,[2]; [29],17.5 MFI
same,fluorescence intensity,[2]; [30],18 MFI
same,fluorescence intensity,[2]; [31],16.5 MFI
same,fluorescence intensity,[2]; [32],20 MFI
same,fluorescence intensity,[2]; [25],20.5 MFI
same,fluorescence intensity,[2]; [26],28.2 MFI
same,fluorescence intensity,[3]; [27],15.5 MFI
same,fluorescence intensity,[3]; [28],14.5 MFI
same,fluorescence intensity,[3]; [29],15 MFI
same,fluorescence intensity,[3]; [30],17 MFI
same,fluorescence intensity,[3]; [31],15.5 MFI
same,fluorescence intensity,[3]; [32],15 MFI
same,fluorescence intensity,[3]; [25],18.5 MFI
same,fluorescence intensity,[3]; [26],53.5 MFI
same,fluorescence intensity,[4]; [27],25 MFI
same,fluorescence intensity,[4]; [28],24.5 MFI
same,fluorescence intensity,[4]; [29],24.5 MFI
same,fluorescence intensity,[4]; [30],24.5 MFI
same,fluorescence intensity,[4]; [31],25 MFI
same,fluorescence intensity,[4]; [32],27 MFI
same,fluorescence intensity,[4]; [25],41.5 MFI
same,fluorescence intensity,[4]; [26],206 MFI
same,fluorescence intensity,[5]; [27],25.5 MFI
same,fluorescence intensity,[5]; [28],25.8 MFI
same,fluorescence intensity,[5]; [29],25.5 MFI
same,fluorescence intensity,[5]; [30],26 MFI
same,fluorescence intensity,[5]; [31],26.5 MFI
same,fluorescence intensity,[5]; [32],26.8 MFI
same,fluorescence intensity,[5]; [25],30 MFI
same,fluorescence intensity,[5]; [26],54 MFI
same,fluorescence intensity,[6]; [27],20 MFI
same,fluorescence intensity,[6]; [28],18 MFI
same,fluorescence intensity,[6]; [29],18.5 MFI
same,fluorescence intensity,[6]; [30],17 MFI
same,fluorescence intensity,[6]; [31],17.2 MFI
same,fluorescence intensity,[6]; [32],19.5 MFI
same,fluorescence intensity,[6]; [25],22.2 MFI
same,fluorescence intensity,[6]; [26],56.5 MFI
same,fluorescence intensity,[7]; [27],17.5 MFI
same,fluorescence intensity,[7]; [28],16.8 MFI
same,fluorescence intensity,[7]; [29],17.5 MFI
same,fluorescence intensity,[7]; [30],16.5 MFI
same,fluorescence intensity,[7]; [31],17.5 MFI
same,fluorescence intensity,[7]; [32],20.5 MFI
same,fluorescence intensity,[7]; [25],25.5 MFI
same,fluorescence intensity,[7]; [26],46.8 MFI
same,fluorescence intensity,[8]; [27],16 MFI
same,fluorescence intensity,[8]; [28],16.5 MFI
same,fluorescence intensity,[8]; [29],15.5 MFI
same,fluorescence intensity,[8]; [30],16.5 MFI
same,fluorescence intensity,[8]; [31],15 MFI
same,fluorescence intensity,[8]; [32],16 MFI
same,fluorescence intensity,[8]; [25],20 MFI
same,fluorescence intensity,[8]; [26],60.8 MFI
same,fluorescence intensity,[9]; [27],22 MFI
same,fluorescence intensity,[9]; [28],23 MFI
same,fluorescence intensity,[9]; [29],23.5 MFI
same,fluorescence intensity,[9]; [30],21.5 MFI
same,fluorescence intensity,[9]; [31],22.2 MFI
same,fluorescence intensity,[9]; [32],24 MFI
same,fluorescence intensity,[9]; [25],25 MFI
same,fluorescence intensity,[9]; [26],31 MFI
same,fluorescence intensity,[10]; [27],11.5 MFI
same,fluorescence intensity,[10]; [28],12 MFI
same,fluorescence intensity,[10]; [29],13 MFI
same,fluorescence intensity,[10]; [30],12 MFI
same,fluorescence intensity,[10]; [31],13 MFI
same,fluorescence intensity,[10]; [32],13 MFI
same,fluorescence intensity,[10]; [25],15 MFI
same,fluorescence intensity,[10]; [26],27 MFI
same,fluorescence intensity,[11]; [27],10.5 MFI
same,fluorescence intensity,[11]; [28],11.5 MFI
same,fluorescence intensity,[11]; [29],10.5 MFI
same,fluorescence intensity,[11]; [30],12.5 MFI
same,fluorescence intensity,[11]; [31],11 MFI
same,fluorescence intensity,[11]; [32],12 MFI
same,fluorescence intensity,[11]; [25],12.8 MFI
same,fluorescence intensity,[11]; [26],32 MFI
same,fluorescence intensity,[12]; [27],15 MFI
same,fluorescence intensity,[12]; [28],15 MFI
same,fluorescence intensity,[12]; [29],14 MFI
same,fluorescence intensity,[12]; [30],14 MFI
same,fluorescence intensity,[12]; [31],15.2 MFI
same,fluorescence intensity,[12]; [32],17 MFI
same,fluorescence intensity,[12]; [25],24 MFI
same,fluorescence intensity,[12]; [26],97.2 MFI
same,fluorescence intensity,[13]; [27],23.5 MFI
same,fluorescence intensity,[13]; [28],23.5 MFI
same,fluorescence intensity,[13]; [29],23.2 MFI
same,fluorescence intensity,[13]; [30],23.5 MFI
same,fluorescence intensity,[13]; [31],25.2 MFI
same,fluorescence intensity,[13]; [32],24 MFI
same,fluorescence intensity,[13]; [25],26 MFI
same,fluorescence intensity,[13]; [26],36.2 MFI
same,fluorescence intensity,[14]; [27],10.5 MFI
same,fluorescence intensity,[14]; [28],11 MFI
same,fluorescence intensity,[14]; [29],11 MFI
same,fluorescence intensity,[14]; [30],11 MFI
same,fluorescence intensity,[14]; [31],10.5 MFI
same,fluorescence intensity,[14]; [32],11 MFI
same,fluorescence intensity,[14]; [25],13 MFI
same,fluorescence intensity,[14]; [26],21.5 MFI
same,fluorescence intensity,[15]; [27],23.2 MFI
same,fluorescence intensity,[15]; [28],22.5 MFI
same,fluorescence intensity,[15]; [29],22.5 MFI
same,fluorescence intensity,[15]; [30],23 MFI
same,fluorescence intensity,[15]; [31],23 MFI
same,fluorescence intensity,[15]; [32],23 MFI
same,fluorescence intensity,[15]; [25],25.5 MFI
same,fluorescence intensity,[15]; [26],60.5 MFI
same,fluorescence intensity,[16]; [27],14.5 MFI
same,fluorescence intensity,[16]; [28],16 MFI
same,fluorescence intensity,[16]; [29],15 MFI
same,fluorescence intensity,[16]; [30],15 MFI
same,fluorescence intensity,[16]; [31],16 MFI
same,fluorescence intensity,[16]; [32],15.5 MFI
same,fluorescence intensity,[16]; [25],16.5 MFI
same,fluorescence intensity,[16]; [26],25.5 MFI
same,fluorescence intensity,[17]; [27],11.5 MFI
same,fluorescence intensity,[17]; [28],11.5 MFI
same,fluorescence intensity,[17]; [29],11.8 MFI
same,fluorescence intensity,[17]; [30],11.5 MFI
same,fluorescence intensity,[17]; [31],11 MFI
same,fluorescence intensity,[17]; [32],12 MFI
same,fluorescence intensity,[17]; [25],15.5 MFI
same,fluorescence intensity,[17]; [26],42.5 MFI
same,fluorescence intensity,[18]; [27],19.8 MFI
same,fluorescence intensity,[18]; [28],20.8 MFI
same,fluorescence intensity,[18]; [29],21.5 MFI
same,fluorescence intensity,[18]; [30],18.5 MFI
same,fluorescence intensity,[18]; [31],21.2 MFI
same,fluorescence intensity,[18]; [32],21.5 MFI
same,fluorescence intensity,[18]; [25],28.2 MFI
same,fluorescence intensity,[18]; [26],52.8 MFI
same,fluorescence intensity,[19]; [27],8.5 MFI
same,fluorescence intensity,[19]; [28],8 MFI
same,fluorescence intensity,[19]; [29],8.5 MFI
same,fluorescence intensity,[19]; [30],8.75 MFI
same,fluorescence intensity,[19]; [31],9 MFI
same,fluorescence intensity,[19]; [32],9.75 MFI
same,fluorescence intensity,[19]; [25],12.5 MFI
same,fluorescence intensity,[19]; [26],51 MFI
same,fluorescence intensity,[20]; [27],20.2 MFI
same,fluorescence intensity,[20]; [28],21.5 MFI
same,fluorescence intensity,[20]; [29],20.8 MFI
same,fluorescence intensity,[20]; [30],21 MFI
same,fluorescence intensity,[20]; [31],21 MFI
same,fluorescence intensity,[20]; [32],22.5 MFI
same,fluorescence intensity,[20]; [25],27 MFI
same,fluorescence intensity,[20]; [26],40 MFI
same,fluorescence intensity,[21]; [27],20 MFI
same,fluorescence intensity,[21]; [28],18.5 MFI
same,fluorescence intensity,[21]; [29],17 MFI
same,fluorescence intensity,[21]; [30],18 MFI
same,fluorescence intensity,[21]; [31],19 MFI
same,fluorescence intensity,[21]; [32],20 MFI
same,fluorescence intensity,[21]; [25],23.5 MFI
same,fluorescence intensity,[21]; [26],38 MFI
same,fluorescence intensity,[22]; [27],20 MFI
same,fluorescence intensity,[22]; [28],19 MFI
same,fluorescence intensity,[22]; [29],31.5 MFI
same,fluorescence intensity,[22]; [30],61.5 MFI
same,fluorescence intensity,[22]; [31],61 MFI
same,fluorescence intensity,[22]; [32],66 MFI
same,fluorescence intensity,[22]; [25],73 MFI
same,fluorescence intensity,[22]; [26],82.5 MFI
same,fluorescence intensity,[23]; [27],17 MFI
same,fluorescence intensity,[23]; [28],15.5 MFI
same,fluorescence intensity,[23]; [29],17 MFI
same,fluorescence intensity,[23]; [30],14.8 MFI
same,fluorescence intensity,[23]; [31],17 MFI
same,fluorescence intensity,[23]; [32],17.2 MFI
same,fluorescence intensity,[23]; [25],18 MFI
same,fluorescence intensity,[23]; [26],33.8 MFI
same,fluorescence intensity,[24]; [27],18.5 MFI
same,fluorescence intensity,[24]; [28],20 MFI

# In a second layout: results already given
binder	measurement	setting	value
B1	fluorescence intensity	[4]; [27]	25 MFI
same	fluorescence intensity	[4]; [28]	24.5 MFI
same	fluorescence intensity	[4]; [29]	24.5 MFI
same	fluorescence intensity	[4]; [30]	24.5 MFI
same	fluorescence intensity	[4]; [31]	25 MFI
same	fluorescence intensity	[4]; [32]	27 MFI

# In a second layout: entries from further up
binder	measurement	setting	value
B1	fluorescence intensity	[4]; [29]	24.5 MFI
same	fluorescence intensity	[5]; [27]	25.5 MFI
same	fluorescence intensity	[5]; [28]	25.8 MFI
same	fluorescence intensity	[12]; [28]	15 MFI
same	fluorescence intensity	[19]; [30]	8.75 MFI
